Measured values from patent publication US20040265961A1.
No constants are given. Whether binding was seen depends on the method and setting. In cells and extracts the contact can be indirect. Some results given as binding are weak or reduced against the parent protein; the word gives no strength. Where a sequence is shown, tags or fusion partners need not be part of it. One block for each binder: values may come before it.

Sequences of proteins named here, by UniProt entry; tags and fusion partners are left off. A change or cut given only in a name is not applied to a line headed by its entry. Residues count along the entry.
UniProt P41279: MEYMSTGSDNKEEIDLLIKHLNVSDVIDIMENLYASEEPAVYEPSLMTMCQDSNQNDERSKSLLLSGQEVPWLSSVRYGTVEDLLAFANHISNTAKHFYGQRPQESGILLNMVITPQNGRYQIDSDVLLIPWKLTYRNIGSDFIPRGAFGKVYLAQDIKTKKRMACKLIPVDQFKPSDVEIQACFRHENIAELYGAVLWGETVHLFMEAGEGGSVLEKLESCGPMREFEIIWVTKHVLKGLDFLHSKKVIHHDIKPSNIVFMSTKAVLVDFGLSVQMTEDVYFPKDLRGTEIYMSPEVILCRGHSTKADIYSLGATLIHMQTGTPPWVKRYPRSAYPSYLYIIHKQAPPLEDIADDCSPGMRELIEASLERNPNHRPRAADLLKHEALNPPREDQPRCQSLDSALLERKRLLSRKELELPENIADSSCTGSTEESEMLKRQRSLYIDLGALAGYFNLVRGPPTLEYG
Cot/Tp12 with truncation of the C-terminal 71 amino acids: residues 1-396 of P41279
UniProt P51617: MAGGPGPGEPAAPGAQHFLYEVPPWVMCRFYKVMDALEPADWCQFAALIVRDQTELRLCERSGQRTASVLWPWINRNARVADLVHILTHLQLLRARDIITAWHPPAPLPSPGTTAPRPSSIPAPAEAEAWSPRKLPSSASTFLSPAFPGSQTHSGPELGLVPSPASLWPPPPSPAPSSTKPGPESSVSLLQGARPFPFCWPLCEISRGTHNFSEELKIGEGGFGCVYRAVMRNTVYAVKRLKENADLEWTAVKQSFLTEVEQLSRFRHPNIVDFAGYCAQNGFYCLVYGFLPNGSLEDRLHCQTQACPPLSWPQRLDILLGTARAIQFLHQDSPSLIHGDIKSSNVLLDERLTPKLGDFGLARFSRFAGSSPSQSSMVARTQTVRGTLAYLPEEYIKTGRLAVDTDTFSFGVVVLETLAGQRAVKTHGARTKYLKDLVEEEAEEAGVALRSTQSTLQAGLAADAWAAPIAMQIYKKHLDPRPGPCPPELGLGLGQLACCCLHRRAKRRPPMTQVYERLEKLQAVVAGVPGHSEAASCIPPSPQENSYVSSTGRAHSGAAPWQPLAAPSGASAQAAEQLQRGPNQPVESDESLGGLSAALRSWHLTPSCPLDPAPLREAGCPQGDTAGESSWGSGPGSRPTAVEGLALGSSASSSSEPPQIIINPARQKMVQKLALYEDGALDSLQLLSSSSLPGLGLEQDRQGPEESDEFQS

Assays:
[1] = target: Cot/Tp12 with truncation of the C-terminal 71 amino acids (human) (UniProt P41279); experiment: co-immunoprecipitation from cotransfected 293T cells
[2] = target: Cot/Tp12 (full-length) (human) (UniProt P41279); experiment: anti-FLAG co-immunoprecipitation from KSR-2-FLAG-transfected 293T lysate, Western blot
IRAK1 = IRAK1 (UniProt P51617); experiment: as above
P.MEK1 = P.MEK1 (UniProt Q02750); experiment: as above
[3] = target: Cot/Tp12 (full-length) (human) (UniProt P41279); experiment: reciprocal co-immunoprecipitation (anti-Cot IP with anti-FLAG blot, and anti-FLAG IP with anti-Cot blot) from cotransfected 293T cells

binding [1]: binds | binding [2]: binds | binding (IRAK1): binds | binding (P.MEK1): binds | binding [3]: binds
B1: hKSR-2-FLAG (full-length human KSR-2 with the FLAG epitope at its carboxyl terminus) (protein)
chain: MTDEQVCETVEKYGANREECARLNASLSCLRNVHMSGGNLSKQDWTIQWPTTETGKENNPVCPPEPTPWIRTHLSQSPRVPSKCVQHYCHTSPTPGAPVYTHVDRLTVDAYPGLCPPPPLESGHRSLPPSPRQRHAVRTPPRTPNIVTTVTPPGTPPMRKKNKLKPPGTPPPSSRKLIHLIPGFTALHRSKSHEFQLGHRVDEAHTPKAKKKSKPLNLKIHSSVGSCENIPSQQRSPLLSERSLRSFFVGHAPFLPSTPPVHTEANFSANTLSVPRWSPQIPRRDLGNSIKHRFSTKYWMSQTCTVCGKGMLFGLKCKNCKLKCHNKCTKEAPPCHLLIIHRGDPARLVRTESVPCDINNPLRKPPRYSDLHISQTLPKTNKINKDHIPVPYQPDSSSNPSSTTSSTPSSPAPPLPPSATPPSPLHPSPQCTRQQKNFNLPASHYYKYKQQFIFPDVVPVPETPTRAPQVILHPVTSNPILEGNPLLQIEVEPTSENEEVHDEAEESEDDFEEMNLSLLSARSFPRKASQTSIFLQEWDIPFEQLEIGELIGKGRFGQVYHGRWHGEVAIRLIDIERDNEDQLKAFKREVMAYRQTRHENVVLFMGACMSPPHLAIITSLCKGRTLYSVVRDAKIVLDVNKTRQIAQEIVKGMGYLHAKGILHKDLKSKNVFYDNGKVVITDFGLFSISGVLQAGRREDKLRIQNGWLCHLAPEIIRQLSPDTEEDKLPFSKHSDVFALGTIWYELHAREWPFKTQPAEAIIWQMGTGMKPNLSQIGMGKEISDILLFCWAFEQEERPTFTKLMDMLEKLPKRNRRLSHPGHFWKSAELDYKDDDDK

binding [3]: binds
B2: KSR-2-CD-FLAG (catalytic domain of human KSR-2 with the FLAG epitope at its carboxyl terminus) (protein)
chain: EQLEIGELIGKGRFGQVYHGRWHGEVAIRLIDIERDNEDQLKAFKREVMAYRQTRHENVVLFMGACMSPPHLAIITSLCKGRTLYSVVRDAKIVLDVNKTRQIAQEIVKGMGYLHAKGILHKDLKSKNVFYDNGKVVITDFGLFSISGVLQAGRREDKLRIQNGWLCHLAPEIIRQLSPDTEEDKLPFSKHSDVFALGTIWYELHAREWPFKTQPAEAIIWQMGTGMKPNLSQIGMGKEISDILLFCWAFEQEERPTFTKLMDMLEKLPKRNRRLSHPGHFWKSAELDYKDDDDK
